The results in this text go back to publication PMC10152145.

Experiment [1] has as its target DCP1‐GFP (Arabidopsis thaliana). As to the kind of experiment: FRET or BRET; acceptor photobleaching FRET in Arabidopsis root epidermal cells (regions 1 and 3).
Experiment [2] has the same target. The experiment in a line: proximity ligation; quantitative 3D PLA (Duolink) on fixed Arabidopsis roots with antibodies against the tags (α‐FLAG/α‐GFP or α‐GFP/α‐RFP); PLA spots per cell.
Experiment [3] concerns the target DCP1^S237A‐GFP (Arabidopsis thaliana). As to the kind of experiment: FRET or BRET; sensitized emission FRET (SE‐FRET) in live Arabidopsis root cells (mainly epidermis, root regions 1–3).
Experiment [4] addresses DCP1‐GFP (Arabidopsis thaliana). Described as above.
Experiment [5] has as its target cYFP‐DCP1 (Arabidopsis thaliana). As to the kind of experiment: split reporter; BiFC (nYFP/cYFP) by transient expression in N. benthamiana leaves; YFP signal intensity and YFP-positive puncta per cell by confocal microscopy.
The target in experiment [6] is HF‐mScarlet‐DCP1 (Arabidopsis thaliana). The experiment in a line: FRET or BRET; sensitized emission FRET (SE‐FRET) in live Arabidopsis root cells (mainly epidermis, root regions 1–3).
The target is the same in experiment [7]. As to the kind of experiment: proximity ligation; quantitative 3D PLA (Duolink) on fixed Arabidopsis roots with antibodies against the tags (α‐FLAG/α‐GFP or α‐GFP/α‐RFP); PLA spots per cell.

No constants are given. Whether binding was seen depends on the method and setting. Binding seen in cells or lysates may run through a third protein. For some of these results: A result given as binding can be weak or reduced; the word gives no strength. For some of these results: Where a sequence is shown, tags or fusion partners need not be part of it.

B1: BRK1‐mRuby (protein, UniProt Q94JY4 1-85)
chain: MAKAGGITNAVNVGIAVQADWENREFISHISLNVRRLFEFLVQFESTTKSKLASLNEKLDLLERRLEMLEVQVSTATANPSLFAT
For B1, the binding result in experiment [1] and in experiment [2] was “binds” throughout.

B2: SCAR2‐mCherry (protein, UniProt Q5XPJ9 1-1399)
chain: MPLTRYQSRNEYGLADPDLYQAADKDDPEALLEGVAMAGLVGILRQLGDLAEFAAEMFHDLHEEVMATASRSHGLMARVQQLEAEFPSIEKALLCQTDHSPFFSNKGVEWHPNLQLEQSVVTSGDLPRCVMDSYEECRGPPRLFLLDKFDISGAGACLKRYTDPSFVRLETSSYEESWDDIQREKKSQKAKRRASQWRNGGTPENALSSHAKLHELFLEEHLEAHHSDPARVVKLKTRKLDGCSLISKSGESYMEKFVQTRVDSKISYEIITQNPGLLTWNMDSARDVVTDIPEISMVGAMDKSHGGSRAEVSFPSEQENVANVNMNGGFIEKDIETVPESTYNEVRGTTITQDSQTVLNGKPGFFQQRSYSEDLTSEADNYVDAPATMESETETDDECRPKSRSDTLKDGNHHIYSDAVEERMEDPPQFSFSHSNGNTPVSENGRSSFGKKSTSYSYSDTASISIDDQSDGEKLSGCLPSTSSFKSELVDSMSHVTPEANKVSHDLNVQESVSSSNVDGQTSLSSNGTCSSPRPVSQNDQSCSLTVQSLASEVVETSPELVRLDLMKGGNDGRKVDPFDSSKSCASFDAKNSDLPSETSSISSTSEGSRCDSTIEKNCMVASNLVNSGTSPQAFVDSQTGKQLPIADTDFETNSIVACSEVLANSGSDPEERDGRCLTGKLVPCSAGVGMEVSPDTPSKVCGPSSADGIHLKDTLDDETDCVSVTNVVVDVDSKNSVADVGSQSSVADIDSQSSVAEISDEHSCAFGNTADVSVSESHEDTLENGMSVPSDFNSGVEKLAGDASPTCSKCDDHISHEGFHDLSGLDNATTDIVPNVELDVSDNDNDTSSGGVNHAVSLSSTRGKGSLPWISTNTYQSSSDAGEIFHDTVVESDGTLLEDNNPESEIKMHKSPLEVSSEGLSTEPDNKDVESIESTSPKPSLDQRNRDTETKSPGESILDDNCIDSTQVYNLNLLESEAIDQAVREQTSYASHEVADEELLQSNVFRGLEFEPQSAGLEFAPQSAGIELNRPKQELNLDPTFPSFGFIPETIPPNPEDMPPLPPMQWLIGKVPHSFPTFMGESVETSSSALSAAPPIGSSLNVQIGSPPSELSVSLGSDESERLPGGFVHNASEKPLQSSIQFPTMSTDLNSQYDSSELPTIPYQECIEDFGSEENNLLADHAAQNHELVYSQASSLQLPQVKHEDFKDDADVHESQSSSDDHHCPETKSLTPTQSTKVEDKGHSVPDASNAETAESSNTSVQKINPVSVGDAMWPVSCFSVAPTLDTYKTEVVPTVRLPRPRSPLVDAVAAHDRRKMKKVSEMVHPPIKSKQDDKDSLLAQIRNKSVNLKPAVTTRPSIQTGPRTDLRVAAILEKANTIRMAMAGSDEDEDSDSWSDS
Turning to B2, the binding result in experiment [1], in experiment [2], in experiment [3] and in experiment [4] was “binds” each time.

B3: pSITE17 (cYFP‐GW)‐FLXL1 (protein, UniProt Q93V84 1-331)
chain: MSGRNRGPPPPSMKGGSYSGLQAPVHQPPFVRGLGGGPVPPPPHPSMIDDSREPQFRVDARGLPPQFSILEDRLAAQNQDVQGLLADNQRLAATHVALKQELEVAQHELQRIMHYIDSLRAEEEIMMREMYDKSMRSEMELREVDAMRAEIQKIRADIKEFTSGRQELTSQVHLMTQDLARLTADLQQIPTLTAEIENTKQELQRARAAIDYEKKGYAENYEHGKIMEHKLVAMARELEKLRAEIANSETSAYANGPVGNPGGVAYGGGYGNPEAGYPVNPYQPNYTMNPAQTGVVGYYPPPYGPQAAWAGGYDPQQQQQQQPPPQGQGHR
Take B3: the binding entry in experiment [5] is listed as “binds”.

B4: PAT1‐GFP (protein, UniProt Q0WPK4 1-793)
chain: MDAFGIGSSLNQAPVTQDLKKFGDNSTGNTMFDASQYAFFGNDVVEEVELGGLEEEDEILSFTGIAEDFSFDKEEVGDSRLLSDVDDLASTFSKLNREPDVYSNTGPITDRRSSQNSLAAEWTHGEELPNWYGRQILDSDAIKDDKVWSAQPFSSLDRVEQRIPDRTKLYPEPQRQLHQDHNQQQFSSEPILVPKSSFVSYPPPGSISPDQRLGHPNIPYQSGGPQMGSPNFSPFPNLQPQLPSMHHGSPQHTGNRPQFRPALPLNNLPPAQWMNRQNMHPGDSSGIMNNAMLQQPPHQNGLMPPQMQGSQNRLPHPMQPPLGHMPGMQPQLFNSHLSRSSSSGNYDGMLGFGDLREVRPGSGHGNRQNVRFPQQGFDAGVQRRYPFRSKYMSAGEIENILRMQLVATHSNDPYVDDYYHQACLAKKSAGAKLKHHFCPNHLRDLQQRARSNNEPHAFLQVEALGRVPFSSIRRPRPLLEVDPPNSAKFGNAEHKPTDKPLDQEPMLAARVYIEDGLCLLLEVDDIDRFLEFNQLQDGGHQLKQRRQALLQSLAVSLQLGDPLAKNGQSQSLDDFLFLRVISLPKGRKLLIRYLQLIFPGSDLMRIVCMAIFRHLRSLFGVLSSDPDIIKTTNKLATVINLCIQNMELGPVSTCLAAVSCSSEQAPLRPLGSPVGDGASTVLKSILDRASELIRANNFNNAGIALWRASFNEFFNMLMRYCISKYDSIMQSLQLPPHFATEISEEAAKAIVREMPIELLRSSFPHIDEQQKRILMEFLKRSMLGSQKTEPVLS
On to B4, for which the binding result in experiment [6] is “binds weakly”.

B5: pSITE17 (cYFP‐GW)‐RH12 (protein, UniProt Q9M2E0 1-498)
chain: MNTNRGRYPPGVGTGRGAPPNPDYHQSYRQQQPPQDQQYVQRGYSQNPQQMQLQQQHQQQQQQQQWSRRPQLPGNASNANEVVQQTTQPEASSDANGQDWKATLRLPPPDTRYQTADVTATKGNEFEDYFLKRDLLKGIYEKGFEKPSPIQEESIPIALTGSDILARAKNGTGKTGAFCIPVLEKIDPNNNVIQAMILVPTRELALQTSQVCKELSKYLNIQVMVTTGGTSLRDDIMRLHQPVHLLVGTPGRILDLTKKGVCVLKDCAMLVMDEADKLLSAEFQPSLEELIQFLPQNRQFLMFSATFPVTVKAFKDRHLRKPYVINLMDQLTLMGVTQYYAFVEERQKVHCLNTLFSKLQINQSIIFCNSVNRVELLAKKITELGYSCFYIHAKMVQDHRNRVFHEFRNGACRNLVCTDLFTRGIDIQAVNVVINFDFPRTSESYLHRVGRSGRFGHLGLAVNLVTYEDRFKMYQTEQELGTEIKPIPSNIDQAIYCQ
As for B5, the binding entry in experiment [5] is reported as “binds”.

B6: SOK3‐YFP (protein, UniProt Q8GYT8 1-540)
chain: MEARMKKYSREVSPERAKVWTEKSPKYHQKIKKVQIVYYLSKNRQLEHPHFMEVLISSPNGLYLRDVIERLNVLRGRGMASMYSWSSKRSYRNGFVWHDLSEDDLILPANGNEYVLKGSELFDESNSDHFSPIVNLATQNMKQIVVEPPSSRSMDDSSSSSSMNNGKGTNKHSHEDDELSPPALRSVSSSGVSPDSRDAKNSSSWCLAEYKVYKSEGLADASTQTDETVSGRSKTPIETFSRGVSTDEDVSSEPETSENNLVSEASCAGKERESAEISRNSVSPPFSNSASSLGGKTDTLESLIRADVSKMNSFRILEQEDVRMPAIPRLRASNMLMQLISCGSISVKDNNFGLVPTYKPKFGHSKFPSPFFSSSFMMGDLDRLSETPSLMGLRMEEKEYFSGSLVETKLQKKDAADSNASLKRSSSYNGDRASNQMGVAENGDSKPDSSKNNPSSRKASSILGKQQPLVSEKRRDSSEDTTKNIPCTTKTHDACSKRITESLRKPDSFREDEERVIKIDERLASGARVRIESKVPSEEP
With B6, the binding result in experiment [7] is “no binding”.
